Article PMC4986891
Results are given in words; binding and its absence hold for the method and conditions named. In cells and extracts the contact can be indirect. Some entries that bind do so weakly or less than the wild type.

Amino acid sequences for entries named in this document (tags omitted).
UniProt Q10055: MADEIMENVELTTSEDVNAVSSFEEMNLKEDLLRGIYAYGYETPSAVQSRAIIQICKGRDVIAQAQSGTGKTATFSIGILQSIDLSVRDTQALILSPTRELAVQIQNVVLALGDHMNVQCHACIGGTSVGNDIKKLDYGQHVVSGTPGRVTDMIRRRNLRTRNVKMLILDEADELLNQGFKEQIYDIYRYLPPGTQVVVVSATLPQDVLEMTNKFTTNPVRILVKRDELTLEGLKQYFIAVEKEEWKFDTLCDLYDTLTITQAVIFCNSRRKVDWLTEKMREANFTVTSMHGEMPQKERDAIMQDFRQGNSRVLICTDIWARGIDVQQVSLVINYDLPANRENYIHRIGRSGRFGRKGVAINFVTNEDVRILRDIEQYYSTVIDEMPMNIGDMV

Target: T1, Mnh1-FTP (S. pombe) (UniProt O43037)
T1 sequence: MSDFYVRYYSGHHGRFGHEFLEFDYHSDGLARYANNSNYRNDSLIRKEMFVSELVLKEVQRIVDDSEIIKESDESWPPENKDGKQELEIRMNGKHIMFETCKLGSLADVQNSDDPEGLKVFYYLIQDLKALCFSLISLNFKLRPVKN
Experiment: co-IP; S. pombe whole-cell lysates (Benzonase-treated) of strains with epitope-tagged proteins; FTP-tagged proteins pulled down with IgG Sepharose, Myc-, HA- and GFP-tagged proteins with Protein A/G agarose and antibody; IP 2 h at 4 C; Western blot; also done in strains lacking Y14 or Rnps1

Substance: pFal1-Myc (from UniProt Q10055 1-394)
- binding: binds
